Data: patent US9950026B2, “Methods for reducing oxidative damage” (Cornell Research Foundation, Inc., priority 2004, dated 2018)
Not every detail of the peptide structures is certain; ends, links or a residue may be inferred. Where a SMILES comes first, the peptide text is derived from it. [ ]: non-standard residue; d: D form.

Legend:
[1] = test system: C57BL/6 mice subjected to 30 min MCAO; test: Redox status (cysteine, ascorbate, GSH) after transient MCAO; format: in vivo; details: 2 mg/kg i.p. upon reperfusion, 6 h
Method: FIG. 31A-31C. Effect of SS-31 peptide on ischemia-induced changes in cysteine (A) ascorbate (B), and GSH (C) levels, C57BL/6 mice were subjected to 30 min MCAO and treated with vehicle, SS-31 (2 mg/kg body weight) or SS-20 (2 mg/kg body eight) peptide immediately after reperfusion. Mice were sacrificed at 6 h postischemia. Values are expressed as percent increase (cysteine) or percent depletion (ascorbate and GSH) in ipsilateral side versus contralateral side. Error bars indicate SEM (n=4-6 animals per group).
To test the efficacy of SS-3 1 on redox status, cysteine, ascorbate and GSH levels were determined 6 h after 30 min transient middle cerebral artery occlusion (MCAO) in mice treated intraperitoneally (i.p.) with saline (vehicle), SS-31 (2 mg/kg) or SS-20 (2 mg/kg) upon reperfusion. Values in FIG. 31 are expressed as percent increase (cysteine) and percent depletion (ascorbate and GSH) in the ipsilateral side compared to the contralateral side. Absolute values were originally expressed as nmoles/mg protein as shown in FIG. 30 and converted to percent difference. The percent ipsilateral cysteine increase was similar among vehicle-, SS-31-, and SS-20-treated groups (FIG. 31A).

[2] = test system: Human LDL (low density lipoprotein); test: LDL oxidation induced by CuSO4 (conjugated dienes); format: biochemical; details: peptides 100 μM
Method: Human LDL (low density lipoprotein) was prepared fresh from stored plasma. LDL oxidation was induced catalytically by the addition of […] CuSO4, and the formation of conjugated dienes was monitored at […] for 5 h at 37° C. (B. Moosmann and C. Behl, Mol Pharmacol., 61, 260-268 (2002)).

[3] = Linoleic acid peroxidation induced by ABAP (conjugated dienes); details: peptides 100 μM
N2A cells = test: Mitochondrial function, MTT assay, after tBHP; format: cell-based, murine; details: tBHP 50-100 μM, 24 h
Method: FIG. 23A-23B. SS-31 protected against tBHP-induced […]. (A) SS-31 protected mitochondrial viability in N2A cells treated with tBHP for 24 h. Mitochondrial viability was evaluated using the MTT assay (*P<0.01 compared to untreated cells, *P<0.05, P<0.01 compared to tBHP alone). (B) SS-31 protected mitochondrial viability in SH-SY5Y cells treated with tBHP for […] (*P<0.01 compared to untreated cells; **P<0.01 compared to tBHP alone).
Only viable mitochondria containing NADPH dehydrogenase activity are capable of cleaving MTT to the formazan. A 50 μM tBHP induced 50% loss of mitochondrial function in N2A cells (FIG. 23A, […]) and 30% loss of mitochondrial function in SH-SY5Y cells (FIG. 23B, P<0.01). […] Treatment of N2A cells with SS-31 alone had no effect on mitochondrial function.

N=C(N)NCCC[C@@H](NC(=O)[C@@H](N)Cc1ccccc1)C(=O)N[C@@H](Cc1ccccc1)C(=O)N[C@@H](CCCCN)C(N)=O [SS-20, Phe-D-Arg-Phe-Lys-NH2] (H-F[dR]FK-NH2; N-terminus assumed)
ischemia-induced GSH depletion in the cortex [1]: not significantly different | percent ipsilateral depletion of ascorbate [1]: marginally but not significantly affected | rate of LDL oxidation (rate of formation of conjugated dienes) [2]: With the exception of | rate of linoleic acid peroxidation (slope of diene formation) [3]: With the exception of | tBHP-induced mitochondrial toxicity/dysfunction (MTT) (N2A cells): did not protect
